In PubChem BioAssay AID2685 (National Center for Advancing Translational Sciences (NCATS), 2010):
The other results are listed elsewhere or left out. Shown are side measurements of this screen, not its main read-out; they come without a call. The list favours compounds with an active or inconclusive main result. Words in brackets tell the shape of the fitted curve; partial curves, single points and poor fits give uncertain potencies.

Assay: qHTS Assay for Lipid Storage Modulators in Drosophila S3 Cells;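 as to cell number change: cells counted by Cell Tracker Red CMTPX staining in the red channel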
Settings: BODIPY lipid droplet fluorescence, 18-24 h; for cell number change: measured here: cell count max response, cells fed with added oleic acid
Procedure, shortened: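 Laser-scanning cytometry quantifies lipid droplet accumulation (500–530 nm total intensity; droplet/cell object ratio) in oleic acid-fed (400 uM added) Drosophila S3 cells treated with a concentration series. 20 uM Triacsin C defined 100% inhibition.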

[1] = measured here: cell number channel AC50, cells fed with added oleic acid
[2] = measured here: lipid fluorescence (Fed channel) AC50, cells fed with added oleic acid

Structure (SMILES): Cc1cc(C)cc(NS(=O)(=O)c2ccc3oc(=O)ccc3c2)c1
- cell number change: 18.3%
- AC50 [1]: 0.58 µM [rising, full curve, poor fit]

Structure (SMILES): CCOCCCN1C(=O)C2C(C(=O)Nc3ccc(OCC)cc3)C3C=CC2(O3)C1C(=O)NC1CCCCC1 (stereo unspecified)
- cell number change: 1.71%
- AC50 [2]: 29.1 µM [falling, single point]

Structure (SMILES): Cc1nn(CC(=O)N2N=C(C(F)F)CC2(O)C(F)F)c(C)c1[N+](=O)[O-] (stereo unspecified)
- cell number change: 30.7%
- AC50 [1]: 29.1 µM [rising, single point]
- AC50 [2]: 0.13 µM [falling, full curve]

Structure (SMILES): Cc1cccc(C(=O)NNC(=O)Nc2ccccc2)c1
- cell number change: 37.9%

Structure (SMILES): O=C(NS(=O)(=O)c1ccccc1)c1ccccc1F
- cell number change: 7.05%
- AC50 [2]: 18.4 µM [falling, partial curve]

Structure (SMILES): COc1ccccc1/C=C(/C#N)C(=O)O
- cell number change: 15.6%
- AC50 [1]: 0.146 µM [falling, partial curve, poor fit]
- AC50 [2]: 2.31 µM [rising, full curve, poor fit]

Structure (SMILES): COc1ccc(S(=O)(=O)N2CCOC2CNC(=O)C(=O)NCc2ccccc2OC)cc1 (stereo unspecified)
- cell number change: -10.4%
- AC50 [2]: 29.1 µM [rising, single point]

Structure (SMILES): CCCCc1c(C)nc2ccccc2c1SCCC(=O)O
- cell number change: 6.43%
- AC50 [2]: 0.206 µM [falling, full curve, poor fit]

Structure (SMILES): O=C(NC(=S)Nc1cc(S(=O)(=O)N2CCOCC2)ccc1O)c1ccco1
- cell number change: 22.4%
- AC50 [1]: 0.651 µM [rising, full curve, poor fit]
- AC50 [2]: 1.46 µM [rising, partial curve, poor fit]

Structure (SMILES): CCN(CC)CCNC(=O)c1ccc(NC(=O)c2ccc(C(=O)c3ccccc3)cc2)cc1
- AC50 [2]: 29.1 µM [falling, single point]

Structure (SMILES): Clc1cccc(Cc2ccc(Cl)nn2)c1
- cell number change: 32.7%
- AC50 [1]: 2.31 µM [rising, partial curve, poor fit]

Structure (SMILES): O=C(Nc1ccc2c(c1)OCO2)c1ccc(NC2CC2)c([N+](=O)[O-])c1
- cell number change: 11.4%
- AC50 [2]: 5.17 µM [rising, partial curve, poor fit]

Structure (SMILES): O/N=C/c1ccc(-c2cc(Cl)ccc2Cl)o1
- cell number change: 29.2%
- AC50 [2]: 0.366 µM [rising, full curve, poor fit]

Structure (SMILES): O=C(CCl)Nc1c2c(nn1-c1ccccc1)CSC2
- AC50 [2]: 16.4 µM [falling, partial curve]

Structure (SMILES): Cc1ccc(C)c(NC(=S)N2CCC(NC(=O)c3ccco3)CC2)c1
- cell number change: -12.9%
- AC50 [2]: 29.1 µM [falling, single point]

Structure (SMILES): COc1cccc(C(=O)Nc2c(C)nn(-c3ccccc3)c2C)c1
- AC50 [1]: 0.58 µM [falling, full curve]
- AC50 [2]: 3.66 µM [falling, single point]

Structure (SMILES): Cc1ccccc1OCC(=O)NCCC1=CCCCC1
- cell number change: -43.5%
- AC50 [1]: 5.8 µM [falling, single point]
- AC50 [2]: 20.6 µM [falling, partial curve, poor fit]

Structure (SMILES): COCc1nc2ccccc2n1Cc1ccccc1C
- cell number change: -50.2%

Structure (SMILES): CCS(=O)(=O)C1=NSC2=NC(=O)/C(=C\c3ccc(OC(=O)c4ccco4)cc3)C(=N)N21
- AC50 [2]: 6.51 µM [falling, single point]

Structure (SMILES): Cc1ccc(S(=O)(=O)NC(C(=O)OCC(=O)NC2CCS(=O)(=O)C2)C(C)C)cc1 (stereo unspecified)
- cell number change: -125%
- AC50 [1]: 20.6 µM [falling, single point]
- AC50 [2]: 5.17 µM [falling, full curve]

Structure (SMILES): Cc1ccc2cc(C)c3nnc(SCC(=O)N4CCCc5ccccc54)n3c2c1C
- AC50 [1]: 0.517 µM [rising, single point]
- AC50 [2]: 0.231 µM [rising, full curve, poor fit]

Structure (SMILES): O=C(Nc1ccc2c(c1)OCO2)c1ccc(CN2CCOCC2)cc1
- AC50 [1]: 0.092 µM [rising, full curve, poor fit]
- AC50 [2]: 0.146 µM [rising, full curve, poor fit]

Structure (SMILES): COc1ccccc1C(=O)NNC(=O)c1ccc(F)cc1
- cell number change: 6.42%
- AC50 [2]: 3.26 µM [rising, partial curve]

Structure (SMILES): C=CCNC(=S)NNC(=O)CC12CC3CC(CC(C3)C1)C2
- cell number change: -39.4%
- AC50 [1]: 2.31 µM [falling, partial curve]
- AC50 [2]: 1.03 µM [falling, full curve]

Structure (SMILES): Cc1ccc(S(=O)(=O)CCC(=O)Nc2cccc(C)c2)cc1
- cell number change: 0.862%

Structure (SMILES): CCC(C)NCCOCCOc1cc(C)c(Cl)c(C)c1 (stereo unspecified)
- cell number change: 34%
- AC50 [2]: 3.26 µM [falling, single point]

Structure (SMILES): CCOc1ccc(Nc2nc(N)nc(CSC(=S)N3CCN(c4ccccc4)CC3)n2)cc1
- cell number change: 15.2%
- AC50 [1]: 0.411 µM [rising, full curve, poor fit]

Structure (SMILES): COc1ccc(Cc2c(O)nc(SCC(=O)N3CCOCC3)[nH]c2=O)cc1
- cell number change: -8.63%
- AC50 [2]: 1.46 µM [falling, partial curve]

Structure (SMILES): O=C(Nc1c2c(nn1-c1ccc(F)cc1)CS(=O)(=O)C2)c1ccc2c(c1)OCO2
- AC50 [2]: 0.731 µM [rising, single point]

Structure (SMILES): CC(C)[C@H](NC(N)=O)C(=O)Nc1cccc([N+](=O)[O-])c1
- cell number change: -29%

Structure (SMILES): O=C(Oc1c(CN2CCOCC2)cc(Cl)c2cccnc12)c1ccc(F)cc1
- cell number change: -13.6%

Structure (SMILES): Cn1c(=O)n(C)c2cc([N+](=O)[O-])c(N3CCN(C(=O)c4ccc(Cl)cc4)CC3)cc21
- cell number change: 25.1%
- AC50 [2]: 20.6 µM [rising, single point]

Structure (SMILES): Cc1ccccc1Oc1cc(-n2ncc(Cl)c(Cl)c2=O)ncn1
- cell number change: -84.8%
- AC50 [1]: 7.31 µM [falling, partial curve]
- AC50 [2]: 2.91 µM [falling, full curve]

Structure (SMILES): Cc1n[nH]c(=O)nc1Nc1ccc(O)cc1
- cell number change: 11.7%
- AC50 [1]: 2.91 µM [rising, single point]
- AC50 [2]: 32.6 µM [rising, single point]

Structure (SMILES): COc1cc(/C=C/C(=O)O)cc(S(=O)(=O)Nc2ccc3cn[nH]c3c2)c1OC
- cell number change: 31.6%
- AC50 [1]: 16.4 µM [rising, partial curve, poor fit]
- AC50 [2]: 16.4 µM [rising, single point]

Structure (SMILES): CCNC(=O)CN(c1ccc(C)cc1)S(=O)(=O)c1ccc(SC)cc1
- AC50 [2]: 0.58 µM [falling, single point]

Structure (SMILES): COc1ccc(OC)c(C2=NOC(C(=O)Nc3cccnc3)C2)c1 (stereo unspecified)
- AC50 [1]: 6.51 µM [rising, partial curve]

Structure (SMILES): COc1cccc(C(=O)OCC(=O)Nc2sc3c(c2C(N)=O)CCC3)c1O
- cell number change: -32%
- AC50 [1]: 7.31 µM [falling, partial curve]

Structure (SMILES): CCOC(=O)CN1NC2(CCCCC2)NC1=S
- cell number change: -46.9%
- AC50 [1]: 3.66 µM [falling, full curve]
- AC50 [2]: 4.11 µM [falling, full curve]

Structure (SMILES): Cc1cccc(CCNS(=O)(=O)c2ccc3c(c2)n(C)c(=O)c(=O)n3C)c1
- cell number change: 29%
- AC50 [2]: 5.17 µM [rising, full curve]

Structure (SMILES): CCCc1cc2c(=O)c(-c3ccccn3)coc2cc1OC
- cell number change: 23.8%
- AC50 [1]: 0.92 µM [rising, partial curve]
- AC50 [2]: 2.59 µM [rising, partial curve]

Structure (SMILES): COc1cc(OC)cc(OC(=O)C2CCN(C(=O)c3ccc(Cl)cc3)CC2)c1
- cell number change: -39.3%
- AC50 [1]: 29.1 µM [falling, single point]

Structure (SMILES): CC(NC(=O)C(C)(C)C)C(c1cccs1)N1CCOCC1 (stereo unspecified)
- cell number change: 0.819%
- AC50 [2]: 0.651 µM [falling, full curve]

Structure (SMILES): COc1ccc(-c2cc(C(F)(F)F)nc(SCC(=O)N(C)Cc3cnn(C)c3C)n2)cc1OC
- cell number change: 3.64%

Structure (SMILES): CCOC(=O)C1C(=O)NC(c2ccccc2)=NC1c1ccc(C(C)C)cc1 (stereo unspecified)
- cell number change: -43%
- AC50 [1]: 25.9 µM [falling, single point]
- AC50 [2]: 4.61 µM [falling, single point]

Structure (SMILES): CCOc1ccc(NC2=C(OC)C(=O)c3ccccc3C2=O)cc1
- cell number change: -85.6%
- AC50 [1]: 32.6 µM [falling, partial curve]
- AC50 [2]: 32.6 µM [falling, partial curve]

Structure (SMILES): Cc1cc(C)n2nc(SCC(=O)N3CCN(c4ccc(F)cc4)CC3)nc2n1
- cell number change: -15.2%
- AC50 [2]: 0.058 µM [falling, full curve, poor fit]

Structure (SMILES): COc1ccc(NC(=O)C2C(c3ccccc3)C2(Cl)Cl)c(OC)c1 (stereo unspecified)
- cell number change: 3.67%

Structure (SMILES): COC(=O)CCN(C1CCCCC1)S(=O)(=O)c1ccc(S(=O)(=O)NC2CCCCC2)cc1
- AC50 [2]: 0.116 µM [falling, full curve, poor fit]

Structure (SMILES): O=C(Cc1ccccc1)NCCS(=O)c1ccc(Cl)cc1 (stereo unspecified)
- cell number change: 22.8%

Structure (SMILES): COc1cc(OC)c(NC(=O)C2CCCN2C(=O)OCc2ccccc2)cc1Cl (stereo unspecified)
- cell number change: 29%
- AC50 [2]: 14.6 µM [rising, partial curve]

Structure (SMILES): c1ccc(COn2c(-c3ccccc3)nc3c2CCc2nonc2-3)cc1
- cell number change: 0.978%
- AC50 [2]: 0.082 µM [rising, full curve, poor fit]

Structure (SMILES): CC(C)Oc1ccc(CCNC(=O)CC2C(=O)NCCN2C)cc1 (stereo unspecified)
- cell number change: 13.9%
- AC50 [2]: 0.103 µM [falling, full curve, poor fit]

Structure (SMILES): CCOCc1c(C(=O)Nc2ccc3nc(N4CCOCC4)sc3c2)oc2ccccc12
- cell number change: -21%
- AC50 [2]: 13 µM [falling, partial curve, poor fit]

Structure (SMILES): COc1ccc2[nH]c3nc(SCC(=O)Nc4ccc5c(c4)OCO5)nnc3c2c1
- AC50 [1]: 6.51 µM [rising, single point]

Structure (SMILES): CCOC(=O)c1ccc(NC(=O)c2nc[nH]c2C(=O)NCCCNC(=O)c2[nH]cnc2C(=O)Nc2ccc(C(=O)OCC)cc2)cc1
- cell number change: 17.3%
- AC50 [2]: 0.164 µM [rising, full curve, poor fit]

Structure (SMILES): COc1ccc(-c2csc3nc(-c4ccccc4)oc(=O)c23)cc1OC
- cell number change: -42.1%
- AC50 [1]: 14.6 µM [falling, single point]
